Here are results for one substance from PMC8987532.

In the experiment the target is T1, Flag-TRIM65 (Tripartite motif containing 65) (human) (UniProt Q6PJ69).
T1 sequence: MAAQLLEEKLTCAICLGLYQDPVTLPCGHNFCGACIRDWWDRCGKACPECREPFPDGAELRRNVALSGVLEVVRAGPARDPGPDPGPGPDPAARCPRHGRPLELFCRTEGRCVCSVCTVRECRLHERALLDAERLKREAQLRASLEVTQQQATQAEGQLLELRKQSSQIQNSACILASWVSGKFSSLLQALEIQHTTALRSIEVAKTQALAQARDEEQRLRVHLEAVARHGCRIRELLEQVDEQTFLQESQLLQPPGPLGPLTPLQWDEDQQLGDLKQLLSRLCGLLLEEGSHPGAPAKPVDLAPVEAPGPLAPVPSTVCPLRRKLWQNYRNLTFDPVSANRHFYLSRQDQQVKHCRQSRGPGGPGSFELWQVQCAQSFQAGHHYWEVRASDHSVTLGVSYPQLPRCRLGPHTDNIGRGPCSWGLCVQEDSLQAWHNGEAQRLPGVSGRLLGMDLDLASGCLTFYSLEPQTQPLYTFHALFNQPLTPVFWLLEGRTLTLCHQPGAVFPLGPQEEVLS
Description: co-IP; HeLa cell lysates incubated overnight at 4°C with anti-FLAG antibody or IgG crosslinked to protein A/G beads; precipitates blotted with p53 antibodies.

Results are given in words; binding and its absence hold for the method and conditions named. Binding seen in cells or lysates may run through a third protein. Some binding calls cover weakened binding; strength is not graded here. Sequences can lack the tags named with a protein.

Turning to p53 (from UniProt P04637 1-393), the binding result is recorded as “binds”.
